Laboratory results taken from the supplement of paper PMC3334620.
Over roughly 33,000 sequences, “E-score (-0.5 to 0.5)” has its median near -0.0034; the highest 2% begin near 0.25. The list shows a part of the results.

These sequences were tested against T1, Yap3 (UniProt P38749) (assay: PBM E-score (8-mer binding enrichment) (E-score (-0.5 to 0.5)); higher = stronger / more preferred TF binding). Conditions: protein concentration: 100 nM; construct: GST-full length.
T1 sequence: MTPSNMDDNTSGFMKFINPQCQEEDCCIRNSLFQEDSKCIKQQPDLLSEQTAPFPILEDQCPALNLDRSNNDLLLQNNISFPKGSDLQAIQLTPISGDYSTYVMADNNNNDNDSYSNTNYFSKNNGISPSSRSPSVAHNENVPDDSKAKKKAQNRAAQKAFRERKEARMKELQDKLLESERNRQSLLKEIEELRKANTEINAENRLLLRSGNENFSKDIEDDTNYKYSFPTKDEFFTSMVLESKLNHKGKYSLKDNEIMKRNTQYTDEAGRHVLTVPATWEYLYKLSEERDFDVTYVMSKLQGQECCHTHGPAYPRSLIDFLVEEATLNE
Outline: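 The E-score, a modified Wilcoxon-Mann-Whitney statistic, was computed by the Universal PBM Analysis Suite for every ungapped eight-base word pooled with its reverse complement. Scans behind it were normalised with masliner after bound GST-tagged yeast transcription factors were detected with fluorescent anti-GST. The proteins, at about 100-200 nM, had been applied to universal all-10-mer Agilent arrays made double-stranded by primer extension.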

Sequence	PBM E-score
AGTCGTCA	0.0647
GGCAAAAA	0.159
AAAACGCG	0.213
AATCCCGC	0.107
CCAATCTA	0.119
AGTAAGTC	0.0486
TGGAGAAA	-0.0587
TCTGTGCA	0.0618
TACCAACA	0.22
CTATCTAC	0.069
GCCTGACA	-0.126
CGAATACG	0.133
CAACCTCG	-0.0899
AAGCAGGT	0.0506
CGGCATCC	-0.0173
ACCGGAGC	-0.219
CTTCCCTC	-0.132
ACCTCCCT	-0.26
ACGCCACA	0.0621
TAGAGGGA	-0.146
CGTATACC	-0.179
CTGTAAAC	0.0823
GTTCGCGA	0.0297
ACTAAGAC	-0.0709

Sequence	PBM E-score
AGTTATAC	0.127
ACCGAGAC	-0.0351
GAGCCGCC	-0.215
CTGTCCCA	-0.211
CTCGTCAA	-0.055
CCTCAGCC	-0.204
GGTCAACC	-0.0758
GCTAAACC	-0.156
AGATTACA	0.129
GAGAGCAA	-0.0508
AGCTTTAA	0.0942
GAATCGTA	0.0223
GAGGTGAA	0.0133
AAATAACC	-0.00291
AATTTTGG	0.154
CCAAAGAG	0.0367
TCGTATAA	0.172
AGAGGAGG	-0.225
CACGCCCA	-0.15
AAGGAATA	0.216
CGGCGGGA	-0.325
ATACGCCA	-0.0884
ACGAGTAC	0.0946
CAACCGTG	-0.0184

Sequence	PBM E-score
CCCACATC	-0.244
GCATGTCA	-0.0904
GGCCGAAC	-0.163
CCCTCCGG	-0.38
CGTCGAAA	0.0907
GCTTCAAC	0.0512
GTTCCCGA	-0.0841
GCCCTAAC	0.184
AAGGACTG	-0.125
TAGCTATA	0.0179
CTCATGGC	0.0111
GTCTCTAA	-0.0177
ACACAGTC	-0.0489
CCGTCTAG	-0.166
CCAAAGCC	-0.105
AACCGCAA	0.159
CTTTCTCC	-0.166
CTAATCAC	0.271
CTGATGCC	-0.0823
ACTACATA	0.132
ATTGGACC	-0.094
ATGGAATC	0.237
CTCACCAA	0.146
ACGTGCGA	-0.133

Sequence	PBM E-score
ATTTGTCC	0.162
ATCAAGAG	0.208
CAGCACCC	-0.285
GCTGGCAC	-0.196
GGCTATAA	-0.0124
AGATAGAT	-0.0222
ATCTCACG	-0.0651
ATCCTTAG	-0.048
ATCCCGCC	-0.109
ACCACAGG	-0.23
AACCTCAT	0.00999
GCAACAGA	0.0308
CGCAATTC	0.129
ACGCGTAA	0.0957
AGGCTCAA	-0.214
ATGAATGG	0.268
ACCCGGAT	-0.265
CGGACCAG	-0.107
ACACGGCG	-0.113
CAAAGCGC	-0.0221
GAACTTTA	0.0552
GACGAGCC	-0.18

Taken from above:
In PBM E-score, CGGCATCC has -0.0173
In PBM E-score, ATCCTTAG has -0.048
In PBM E-score, ACTACATA has 0.132
